Results taken from PubChem BioAssay AID2685 (National Center for Advancing Translational Sciences (NCATS), 2010).
This is one part of the list. Further columns of the screen follow, without active or inactive calls. Compounds called inactive in the main read-out are mostly missing here. Potencies come from curve fits of mixed quality, noted in brackets.

Experiment: qHTS Assay for Lipid Storage Modulators in Drosophila S3 Cells;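 for cell number change: cells counted by Cell Tracker Red CMTPX staining in the red channel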
Conditions: BODIPY lipid droplet fluorescence, 18-24 h; for cell number change: measured here: cell count max response, cells fed with added oleic acid
Method in brief: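 Drosophila S3 cells loaded with oleic acid (400 uM, as added) and compounds at several concentrations; lipid droplets imaged by 488-nm laser-scanning cytometry, 500–530 nm intensity and object ratio to cell channel. Percent activity normalized to 20 uM Triacsin C.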

[1] = measured here: lipid fluorescence (Fed channel) AC50, cells fed with added oleic acid
[2] = measured here: cell number channel AC50, cells fed with added oleic acid

Compound | cell number change [%] | AC50 [1] | AC50 [2]
COc1ccc(N2CCN(CCNC(=O)CCS(=O)(=O)c3cccc4nsnc34)CC2)cc1 | 3.21 | 25.9 µM [rising, single point] | 
O=C1NCN(c2ccccc2)C12CCN(CCCC(c1ccc(F)cc1)c1ccc(F)cc1)CC2 | -52.8 | 18.4 µM [falling, single point] | 
O=C(NCc1ccc2c(c1)OCO2)C1CCC(CNc2c(N3CCCCC3)c(=O)c2=O)CC1 (stereo unspecified) |  | 0.092 µM [rising, full curve, poor fit] | 
CC(=O)Nc1cccc(NC(=O)CSc2nc(=O)n3cccc(C)c3n2)c1 | 19.5 | 0.58 µM [rising, full curve, poor fit] | 0.326 µM [rising, full curve, poor fit]
Oc1ccc(-c2csc(-c3c[nH]c4ccccc34)n2)c(O)c1 | -23.7 | 0.231 µM [rising, partial curve, poor fit] | 
Cc1ccc(Cl)c(OCCN2CCc3ccccc3C2)c1 | -24.9 |  | 
Cc1ccc(NC(=O)c2ccccc2OCC(=O)c2ccccc2)cc1 | -18.7 | 2.06 µM [rising, partial curve] | 
COc1ccc(C(=O)OCC(=O)NCCCc2ccccc2)cc1OC | 9.01 | 6.51 µM [rising, single point] | 
Cn1c(SCC(=O)N2CCCC2)nc2ccccc21 | -15 |  | 
C1CCC(NC2=NCCC2)CC1 | 25.6 | 10.3 µM [rising, partial curve] | 
Cc1c(C(=O)N(C)C(C)c2ccccn2)oc2c(F)cccc12 (stereo unspecified) | -2.09 | 1.84 µM [falling, partial curve] | 
C=CCNc1nc(NCCN2CCOCC2)nc(N2CCOCC2)n1 | 4.92 | 3.66 µM [falling, full curve, poor fit] | 
Cc1cc(Cl)c(S(=O)(=O)Nc2ccc3c(c2)OCO3)cc1OCC(N)=O | 54.3 | 1.03 µM [rising, partial curve] | 0.731 µM [rising, full curve]
CCOc1ccc(NC(=O)CN(C)C(=O)CCC2CCCCC2)cc1OCC | 2.61 | 0.00461 µM [rising, full curve, poor fit] | 
CCCn1c(=O)c2ccccc2n2c(SCc3cc(=O)oc4ccc5ccccc5c34)nnc12 | 13.2 | 0.164 µM [falling, partial curve, poor fit] | 
O=C1OCC/C1=C\c1ccccc1O | 13.3 |  | 

Compound | cell number change [%] | AC50 [1] | AC50 [2]
CCOC(=O)c1cn2c(C)cccc2n1 | -25.2 | 4.11 µM [falling, single point] | 0.184 µM [rising, single point]
CCOc1ccc(-c2cc(C)n3nc(C(N)=O)cc3n2)cc1 |  | 2.31 µM [rising, partial curve] | 3.66 µM [rising, partial curve]
CCOC(=O)c1cnn(-c2nc(OC)cc(OC)n2)c1C(F)(F)F |  | 0.58 µM [rising, single point] | 0.58 µM [rising, single point]
CSc1ccc(CN(C)C(=O)CCNS(=O)(=O)c2ccc(C)c(C)c2)cc1 | -57.3 | 0.0651 µM [falling, full curve] | 25.9 µM [falling, partial curve]
CC1CCN(c2c(NCC3CCC(C(=O)N4CCCCC4)CC3)c(=O)c2=O)CC1 (stereo unspecified) | 11.4 |  | 
CCOC(=O)c1nn(-c2cccc(OC)c2)c2nc(Nc3ccccc3)cc(=O)n12 | -11.8 | 2.91 µM [rising, full curve] | 
O=C(O)c1ccccc1C(=O)N1CCN(Cc2ccc3c(c2)OCO3)CC1 | -11.1 |  | 2.06 µM [falling, single point]
COc1cccc(/C=N/NC(=O)CNC(=O)C2COc3ccccc3O2)c1O (stereo unspecified) | -1.64 | 2.91 µM [falling, full curve, poor fit] | 
O=S(=O)(Nc1ccc(-n2cnnn2)cc1)c1cccc(Cl)c1 | 8.84 |  | 
c1ccc2c(N3CCCCC3)ncnc2c1 | -10.5 | 18.4 µM [rising, single point] | 
COc1ccc(NC(=O)Cn2cnc3c(cnn3-c3ccc(C)c(C)c3)c2=O)c(OC)c1 | -23.6 | 6.51 µM [falling, single point] | 0.366 µM [falling, single point]
COc1ccc(OC)c(NC(=O)CSc2ccc3ccccc3c2)c1 | -16.3 | 11.6 µM [falling, partial curve] | 
Cc1nn(C(C)C(=O)NCC2CCCO2)c(C)c1[N+](=O)[O-] (stereo unspecified) | -0.294 | 0.164 µM [falling, full curve] | 
CCOc1ccc(-c2nc(N)ncc2-c2ccccc2)c(O)c1 | -100 | 29.1 µM [falling, partial curve] | 23.1 µM [falling, single point]
CCOC(=O)Cn1ccc(O)c(Cc2ccc(Cl)cc2Cl)c1=O |  | 6.51 µM [falling, single point] | 

Looked up above.
In cell number change [%], `CCOC(=O)c1cn2c(C)cccc2n1` has -25.2
In AC50 [1], `CCOC(=O)Cn1ccc(O)c(Cc2ccc(Cl)cc2Cl)c1=O` has 6.51 µM [falling, single point]
In AC50 [1], `Cc1nn(C(C)C(=O)NCC2CCCO2)c(C)c1[N+](=O)[O-]` (stereo unspecified) has 0.164 µM [falling, full curve]
